At least one compound was matched to its structure with a doubt left.
Legend:
N2 wild type worms [1] = experiment: Microfluidic lifespan (survival) monitoring of worms; format: in vivo, Caenorhabditis elegans; conditions: vs negative control; not significant (0.05<p<0.1)
N2 wild type worms [2] = experiment: Microfluidic motility monitoring (head, midbody, tail amplitude, bending frequency, velocity); format: in vivo, Caenorhabditis elegans; conditions: vs negative control
Experimental: For the purpose of this study, the two compounds and four combinations of the two compounds were tested on a microfluidic platform. Worms were injected at the L4 larval stage, confined in dedicated microfluidic chambers, and continuously subjected to the presence of the two compounds, alone or in combination, from the L4 larval stage to the end of the experiment (corresponding to the day when the worm is dead). Acquisition of short sequences of videos for each microfluidic chamber containing worms were executed automatically every six (6) hours during the duration of the assay. The measurement of the motility, as well as the worm size to address compound toxicity (1) and the reproduction assessing longevity (2), were performed on the acquired sequences of videos by using an algorithm (3,4). Dead/live worms were identified automatically, based on the motility parameters. Each condition was tested in four technical replicates on different microfluidic cartridges. The experiment was performed once.
The proposed study was conducted according to the design and timeline depicted in FIG. 1. N2 wild-type C. elegans were grown on solid nematode growth medium (NGM) agar plates until the adult stage and harvested in complete S-Medium. Eggs from the adult population were hatched overnight in S-Medium and the resulting L1 progeny was recovered with a dedicated filter. L1 larvae were then collected through filtering in S-medium, seeded on NGM agar plates and grown for 48 hours (h) at 20° C. […] L4 larvae were then collected through filtering in 5 mL S-medium. 20 to 30 L4 were injected in the microfluidic chips for each condition. Worms were then continuously fed on-chip via bacterial medium, for the duration of the entire experiment. Videos of each micro-chamber were acquired after the feeding during the whole experiment, every 6 hours.
The two compounds, Compound 1 and Compound 2, were suspended in DMSO at the stock concentration of 100 mM and 2.5 M, respectively (Table 1). Compounds were then mixed with the bacterial medium at the targeted concentrations, alone or in combination (Table 2). For all tested conditions, the final vehicle (DMSO) concentration was 1%. For the negative control condition, nematodes were fed with a bacterial medium containing only the vehicle solution (DMSO 1%). All stock solutions were stored at −20° C. and dilutions were made freshly on the day of starting the on-chip experiment and then every 72 h to replace the compound/bacterial medium solutions.
Worm motility is an additional phenotypic readout, where five parameters of the motility were assessed every 6 hours from acquired videos (2 seconds long, 10 frames per second for each video). At each time point, the values recorded for dead worms were excluded. The five motility parameters monitored included (3): • the amplitude of the movement at the head • the amplitude of the movement at the middle of the worm body • the amplitude of tail movement • the worm bending frequency • the worm velocity
These motility parameters were analyzed by phases (Area Under the Curve calculation following by an 2-way ANOVA tests), as defined below: • Phase 1: from day 1 to day 5 • Phase 2: from day 6 to day 10 • Phase 3: from day 11 to day 15 • Phase 4: from day 16 to day 20

CO[C@H]1C[C@@H]2CC[C@@H](C)[C@@](O)(O2)C(=O)C(=O)N2CCCC[C@H]2C(=O)O[C@H]([C@H](C)C[C@@H]2CC[C@@H](O)[C@H](OC)C2)CC(=O)[C@H](C)/C=C(\C)[C@@H](O)[C@@H](OC)C(=O)[C@H](C)C[C@H](C)/C=C/C=C/C=C/1C [Cpd 1, rapamycin]
50% worm's survival (in words) (N2 wild type worms [1]): moderate improvement
motility in Phase 1 (in words) (N2 wild type worms [2]; Phase 1 (D0 to D5)): significant increase in almost all the motility parameters
motility in Phase 2 (in words) (N2 wild type worms [2]; Phase 2 (D6 to D10)): significant increase in almost all the motility parameters
motility in Phase 3 (in words) (N2 wild type worms [2]; Phase 3 (D11 to D15)): No effect on the motility
motility in Phase 4 (in words) (N2 wild type worms [2]; Phase 4 (D16 to D20)): No effect on the motility
overall motility of the worms (in words) (N2 wild type worms [2]; 2-way ANOVA): significantly increased

From patent US20240350464A1, “METHODS OF TREATING NEUROLOGICAL, MUSCULAR, AND PROLIFERATIVE DISORDERS” (Elixira Pharma AG, priority 2023, published 2024)
